Results reported in paper PMC6872537.
These are yes or no findings as the source states them, for the method shown. In cells and extracts the contact can be indirect. A yes stands for co-enrichment or nearness to the bait. Other partners may have been found. Each block holds one molecule with its values, some of them ahead of it.

Amino acid sequences for entries named in this document (tags omitted).
UniProt O95251: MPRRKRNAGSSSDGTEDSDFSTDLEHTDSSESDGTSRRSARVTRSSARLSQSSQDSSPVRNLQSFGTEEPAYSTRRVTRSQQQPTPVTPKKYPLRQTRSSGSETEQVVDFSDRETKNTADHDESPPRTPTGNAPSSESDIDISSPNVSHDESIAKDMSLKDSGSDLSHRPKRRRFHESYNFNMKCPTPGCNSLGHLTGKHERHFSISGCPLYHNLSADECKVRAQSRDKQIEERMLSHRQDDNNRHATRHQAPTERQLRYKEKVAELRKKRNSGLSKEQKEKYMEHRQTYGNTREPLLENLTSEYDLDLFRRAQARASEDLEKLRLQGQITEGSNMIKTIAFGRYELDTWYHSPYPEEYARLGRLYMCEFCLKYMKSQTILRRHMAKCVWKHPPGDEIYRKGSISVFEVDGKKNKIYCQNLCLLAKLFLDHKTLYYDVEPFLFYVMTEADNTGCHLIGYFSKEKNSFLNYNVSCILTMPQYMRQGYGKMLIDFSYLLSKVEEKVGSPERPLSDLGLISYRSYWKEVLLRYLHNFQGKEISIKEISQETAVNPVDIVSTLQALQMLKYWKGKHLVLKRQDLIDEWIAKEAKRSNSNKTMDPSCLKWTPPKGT
UniProt Q04206: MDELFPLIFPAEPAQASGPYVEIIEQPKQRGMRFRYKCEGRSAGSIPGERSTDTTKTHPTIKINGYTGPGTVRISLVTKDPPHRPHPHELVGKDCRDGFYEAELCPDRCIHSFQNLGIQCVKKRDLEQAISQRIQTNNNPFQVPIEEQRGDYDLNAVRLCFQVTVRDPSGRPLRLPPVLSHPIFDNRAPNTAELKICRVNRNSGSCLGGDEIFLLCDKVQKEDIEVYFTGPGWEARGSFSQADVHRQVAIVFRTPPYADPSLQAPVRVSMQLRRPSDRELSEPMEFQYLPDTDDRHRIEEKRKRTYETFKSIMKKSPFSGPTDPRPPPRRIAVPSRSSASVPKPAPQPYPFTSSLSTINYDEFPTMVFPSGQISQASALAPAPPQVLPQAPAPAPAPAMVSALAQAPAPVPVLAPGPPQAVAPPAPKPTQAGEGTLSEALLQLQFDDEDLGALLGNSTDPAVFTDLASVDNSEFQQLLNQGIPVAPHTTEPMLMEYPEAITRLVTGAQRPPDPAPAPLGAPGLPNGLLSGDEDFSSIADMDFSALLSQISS
UniProt Q14978: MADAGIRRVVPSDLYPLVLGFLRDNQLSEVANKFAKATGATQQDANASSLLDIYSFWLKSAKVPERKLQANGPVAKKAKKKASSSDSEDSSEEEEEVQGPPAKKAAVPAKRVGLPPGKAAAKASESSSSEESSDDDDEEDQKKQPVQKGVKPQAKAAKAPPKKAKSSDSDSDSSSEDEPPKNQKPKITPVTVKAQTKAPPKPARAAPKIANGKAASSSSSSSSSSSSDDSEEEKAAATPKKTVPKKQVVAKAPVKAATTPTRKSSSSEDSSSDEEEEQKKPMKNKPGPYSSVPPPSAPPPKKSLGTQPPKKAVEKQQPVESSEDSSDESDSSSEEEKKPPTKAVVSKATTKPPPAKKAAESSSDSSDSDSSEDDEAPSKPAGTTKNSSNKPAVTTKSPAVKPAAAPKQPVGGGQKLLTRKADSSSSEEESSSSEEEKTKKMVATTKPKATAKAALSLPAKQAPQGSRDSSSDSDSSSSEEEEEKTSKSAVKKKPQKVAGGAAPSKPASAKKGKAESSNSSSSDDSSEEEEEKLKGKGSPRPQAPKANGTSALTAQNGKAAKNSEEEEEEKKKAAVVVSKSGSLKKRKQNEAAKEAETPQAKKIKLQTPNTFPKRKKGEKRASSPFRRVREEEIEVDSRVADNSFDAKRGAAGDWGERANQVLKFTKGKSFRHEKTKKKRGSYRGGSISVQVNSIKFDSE

Biological target: GST-ING4 (glutathione S-transferase-fused Inhibitor of growth 4) (human) (UniProt Q9UNL4)
Assay: affinity purification with mass spectrometry; GST-ING4 (5 ug) mixed with 3 ml HeLa S3 lysate (4 mg/ml; Lysis Buffer A: 20 mM Hepes-KOH pH 7.4, 100 mM KCl, 20 mM NaCl, 1% NP-40, 1 mM DTT) overnight at 4 C, captured on Glutathione Sepharose 4B, washed three times, eluted with SDS sample buffer; silver-stained SDS-PAGE, nanoLC/MS/MS; only the target purified

Molecule: histone acetyltrasferase HBO1, endogenous in HeLa S3 (from UniProt O95251 1-611)
binding: binds

Molecule: nuclear factor NF-kappa-B p65 subunit, endogenous in HeLa S3 (from UniProt Q04206 1-551)
binding: binds

Molecule: nucleolar GTP-binding protein 2 (GNL2), endogenous in HeLa S3 (from UniProt Q13823 1-731)
binding: binds

The remaining lines, values ahead:

binding: binds
Molecule: nucleolar and coiled-body phosphoprotein 1 (NOLC1), endogenous in HeLa S3 (from UniProt Q14978 1-699)

binding: binds
Molecule: p53, endogenous in HeLa S3 (from UniProt P04637 1-393)

binding: binds
B1: G Protein nucleolar 3 (GNL3), endogenous in HeLa S3 (protein, UniProt Q9BVP2 1-549)
chain: MKRPKLKKASKRMTCHKRYKIQKKVREHHRKLRKEAKKRGHKKPRKDPGVPNSAPFKEALLREAELRKQRLEELKQQQKLDRQKELEKKRKLETNPDIKPSNVEPMEKEFGLCKTENKAKSGKQNSKKLYCQELKKVIEASDVVLEVLDARDPLGCRCPQVEEAIVQSGQKKLVLILNKSDLVPKENLESWLNYLKKELPTVVFRASTKPKDKGKITKRVKAKKNAAPFRSEVCFGKEGLWKLLGGFQETCSKAIRVGVIGFPNVGKSSIINSLKQEQMCNVGVSMGLTRSMQVVPLDKQITIIDSPSFIVSPLNSSSALALRSPASIEVVKPMEAASAILSQADARQVVLKYTVPGYRNSLEFFTVLAQRRGMHQKGGIPNVEGAAKLLWSEWTGASLAYYCHPPTSWTPPPYFNESIVVDMKSGFNLEELEKNNAQSIRAIKGPHLANSILFQSSGLTNGIIEEKDIHEELPKRKERKQEEREDDKDSDQETVDEEVDENSSGMFAAEETGEALSEETTAGEQSTRSFILDKIIEEDDAYDFSTDYV
